Measurements reported in the supplement of paper PMC8728848.
Some of the results follow.

Legend:
Experiment in all cases: glycan array binding signal (z-score within array); higher = stronger binding
Details in all cases: glycan notation: IUPAC condensed, linker removed
[1] = biological target: GlcNAc(a1-6)Gal(b1-4)GlcNAc
How it was run: (§1)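 Glycan array data came from 3228 arrays in the Consortium for Functional Glycomics database, and only arrays with an available protein sequence were kept. Glycan names were put into IUPAC-condensed notation, and columns mapping to the same glycan were averaged. The binding signal is a within-array Z-score, averaged across arrays of one protein sequence run at different concentrations or buffers and across linkers. A negative Z-score can be read as non-binding.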

[2] = biological target: GlcNAc(b1-2)Gal(b1-3)GalNAc
How it was run: as §1

[3] = biological target: GlcNAc(b1-2)Man(a1-3)[GlcNAc(b1-2)Man(a1-6)]Man(b1-4)GlcNAc(b1-4)GlcNAc
How it was run: as §1

[4] = biological target: GlcNAc(b1-2)Man(a1-3)[GlcNAc(b1-2)Man(a1-6)]Man(b1-4)GlcNAc(b1-4)[Fuc(a1-6)]GlcNAc
How it was run: as §1

GlcNAc(b1-3)Gal = biological target: GlcNAc(b1-3)Gal
How it was run: as §1

[5] = biological target: GlcNAc(b1-3)Gal(b1-3)GalNAc
How it was run: as §1

GlcNAc(b1-3)Gal(b1-4)Glc = biological target: GlcNAc(b1-3)Gal(b1-4)Glc
How it was run: as §1

[6] = biological target: GlcNAc(b1-3)Gal(b1-4)GlcNAc
How it was run: as §1

[7] = biological target: GlcNAc(b1-3)Gal(b1-4)GlcNAc(b1-3)Gal(b1-4)GlcNAc
How it was run: as §1

GlcNAc(b1-3)GalNAc = biological target: GlcNAc(b1-3)GalNAc
How it was run: as §1

GlcNAc(b1-3)Man = biological target: GlcNAc(b1-3)Man
How it was run: as §1

[8] = biological target: GlcNAc(b1-3)[GlcNAc(b1-4)][GlcNAc(b1-6)]GlcNAc
How it was run: as §1

[9] = biological target: GlcNAc(b1-3)[GlcNAc(b1-6)]Gal(b1-4)GlcNAc
How it was run: as §1

[10] = biological target: GlcNAc(b1-3)[GlcNAc(b1-6)]GalNAc
How it was run: as §1

[11] = biological target: GlcNAc(b1-4)Gal(b1-4)GlcNAc
How it was run: as §1

GlcNAc(b1-4)GlcNAc = biological target: GlcNAc(b1-4)GlcNAc
How it was run: as §1

[12] = biological target: GlcNAc(b1-4)GlcNAc(b1-4)GlcNAc
How it was run: as §1

[13] = biological target: GlcNAc(b1-4)GlcNAc(b1-4)GlcNAc(b1-4)GlcNAc(b1-4)GlcNAc
How it was run: as §1

[14] = biological target: GlcNAc(b1-4)GlcNAc(b1-4)GlcNAc(b1-4)GlcNAc(b1-4)GlcNAc(b1-4)GlcNAc
How it was run: as §1

[15] = biological target: GlcNAc(b1-4)[GlcNAc(b1-6)]GalNAc
How it was run: as §1

[16] = biological target: GlcNAc(b1-6)Gal(b1-4)GlcNAc
How it was run: as §1

GlcNAc(b1-6)GalNAc = biological target: GlcNAc(b1-6)GalNAc
How it was run: as §1

GlcNAc3Prop(b1-4)GlcNAc = biological target: GlcNAc3Prop(b1-4)GlcNAc
How it was run: as §1

[17] = biological target: GlcNAc6S(b1-3)Gal(b1-4)GlcNAc
How it was run: as §1

Kdn(a2-3)Gal(b1-3)GalNAc = biological target: Kdn(a2-3)Gal(b1-3)GalNAc
How it was run: as §1

Kdn(a2-3)Gal(b1-3)GlcNAc = biological target: Kdn(a2-3)Gal(b1-3)GlcNAc
How it was run: as §1

Kdn(a2-3)Gal(b1-4)Glc = biological target: Kdn(a2-3)Gal(b1-4)Glc
How it was run: as §1

Kdn(a2-3)Gal(b1-4)GlcNAc = biological target: Kdn(a2-3)Gal(b1-4)GlcNAc
How it was run: as §1

[18] = biological target: Kdn(a2-3)Gal(b1-4)[Fuc(a1-3)]GlcNAc
How it was run: as §1

Kdn(a2-6)Gal(b1-4)GlcNAc = biological target: Kdn(a2-6)Gal(b1-4)GlcNAc
How it was run: as §1

[19] = biological target: Man(a1-2)Man(a1-2)Man(a1-3)Man
How it was run: as §1

[20] = biological target: Man(a1-2)Man(a1-2)Man(a1-6)[Man(a1-3)]Man
How it was run: as §1

Man(a1-2)Man(a1-3)Man = biological target: Man(a1-2)Man(a1-3)Man
How it was run: as §1

[21] = biological target: Man(a1-2)Man(a1-3)[Man(a1-2)Man(a1-6)]Man
How it was run: as §1

[22] = biological target: Man(a1-2)Man(a1-3)[Man(a1-2)Man(a1-6)]Man(a1-6)[Man(a1-2)Man(a1-2)Man(a1-3)]Man
How it was run: as §1

[23] = biological target: Man(a1-2)Man(a1-3)[Man(a1-2)Man(a1-6)]Man(a1-6)[Man(a1-2)Man(a1-2)Man(a1-3)]Man(b1-4)GlcNAc(b1-4)GlcNAc
How it was run: as §1

[24] = biological target: Man(a1-2)Man(a1-3)[Man(a1-6)]Man(a1-6)[Man(a1-2)Man(a1-3)]Man(b1-4)GlcNAc(b1-4)GlcNAc
How it was run: as §1

B1: HHL-2 (Homo sapiens), P07307 (protein)
chain: MAKDFQDIQQLSSEENDHPFHQGEGPGTRRLNPRRGNPFLKGPPPAQPLAQRLCSMVCFSLLALSFNILLLVVICVTGSQSEGHRGAQLQAELRSLKEAFSNFSSSTLTEVQAISTHGGSVGDKITSLGAKLEKQQQDLKADHDALLFHLKHFPVDLRFVACQMELLHSNGSQRTCCPVNWVEHQGSCYWFSHSGKAWAEAEKYCQLENAHLVVINSWEEQKFIVQHTNPFNTWIGLTDSDGSWKWVDGTDYRHNYKNWAVTQPDNWHGHELGGSEDCVEVQPDGRWNDDFCLQVYRWVCEKRRNATGEVA
[1]
  glycan array binding signal (z-score): -0.458
[2]
  glycan array binding signal (z-score): -0.793
[3]
  glycan array binding signal (z-score): -0.677
[4]
  glycan array binding signal (z-score): 0.079
GlcNAc(b1-3)Gal
  glycan array binding signal (z-score): -0.705
[5]
  glycan array binding signal (z-score): -0.381
GlcNAc(b1-3)Gal(b1-4)Glc
  glycan array binding signal (z-score): -0.486
[6]
  glycan array binding signal (z-score): -0.827
[7]
  glycan array binding signal (z-score): -0.333
GlcNAc(b1-3)GalNAc
  glycan array binding signal (z-score): -0.745
GlcNAc(b1-3)Man
  glycan array binding signal (z-score): -0.467
[8]
  glycan array binding signal (z-score): -0.642
[9]
  glycan array binding signal (z-score): -0.752
[10]
  glycan array binding signal (z-score): -0.617
[11]
  glycan array binding signal (z-score): -0.672
GlcNAc(b1-4)GlcNAc
  glycan array binding signal (z-score): -0.562
[12]
  glycan array binding signal (z-score): 2.8
[13]
  glycan array binding signal (z-score): 0.999
[14]
  glycan array binding signal (z-score): -0.278
[15]
  glycan array binding signal (z-score): -0.749
[16]
  glycan array binding signal (z-score): -0.546
GlcNAc(b1-6)GalNAc
  glycan array binding signal (z-score): -0.738
GlcNAc3Prop(b1-4)GlcNAc
  glycan array binding signal (z-score): -0.629
[17]
  glycan array binding signal (z-score): -0.85
Kdn(a2-3)Gal(b1-3)GalNAc
  glycan array binding signal (z-score): -0.657
Kdn(a2-3)Gal(b1-3)GlcNAc
  glycan array binding signal (z-score): -0.566
Kdn(a2-3)Gal(b1-4)Glc
  glycan array binding signal (z-score): -0.347
Kdn(a2-3)Gal(b1-4)GlcNAc
  glycan array binding signal (z-score): -0.017
[18]
  glycan array binding signal (z-score): 0.01
Kdn(a2-6)Gal(b1-4)GlcNAc
  glycan array binding signal (z-score): -0.456
[19]
  glycan array binding signal (z-score): -0.322
[20]
  glycan array binding signal (z-score): 1.36
Man(a1-2)Man(a1-3)Man
  glycan array binding signal (z-score): -0.028
[21]
  glycan array binding signal (z-score): 0.284
[22]
  glycan array binding signal (z-score): -0.391
[23]
  glycan array binding signal (z-score): -0.086
[24]
  glycan array binding signal (z-score): -0.894
